Patent publication US20260234276A1
Results are given in words; binding and its absence hold for the method and conditions named. Some binding calls cover weakened binding; strength is not graded here.

By UniProt entry, the sequences of proteins in these tests, tags left out. Where a name states a change or a piece, a line headed by the entry shows the natural chain unless it says otherwise.
UniProt P51685: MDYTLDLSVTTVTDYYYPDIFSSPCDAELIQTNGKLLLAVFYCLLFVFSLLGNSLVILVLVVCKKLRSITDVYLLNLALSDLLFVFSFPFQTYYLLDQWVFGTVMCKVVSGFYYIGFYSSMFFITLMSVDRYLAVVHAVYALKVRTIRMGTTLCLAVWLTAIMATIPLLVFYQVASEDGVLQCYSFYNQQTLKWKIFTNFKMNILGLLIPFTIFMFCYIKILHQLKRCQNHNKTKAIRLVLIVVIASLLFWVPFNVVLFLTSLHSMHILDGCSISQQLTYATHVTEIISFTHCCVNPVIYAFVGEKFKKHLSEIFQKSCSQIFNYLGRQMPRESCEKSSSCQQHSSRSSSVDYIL

Assays:
human CCR8 (human) [1] = biological target: human CCR8 (human) (UniProt P51685); assay: flow cytometry, hCCR8 transfected CHOK1 cells versus wild-type CHO
human CCR8 (human) [2] = biological target: human CCR8 (human) (UniProt P51685); assay: competition flow cytometry on hCCR8 transfected CHO cells; blocked ligand CCL1-AF647 [cont.]
pm5 (human) = assay: ELISA on coated peptide [cont.]
pm3 (human) = assay: ELISA on coated peptide [cont.]
pm6 (human) = assay: ELISA on coated peptide [cont.]
pm8 (human) = assay: ELISA on coated peptide [cont.]
human CCR8 (human) [3] = biological target: human CCR8 (human) (UniProt P51685); assay: flow cytometry, hCCR8 transfected CHO cells against wild-type CHO cells

binding (human CCR8 (human) [1]): binds
binding (human CCR8 (human) [2]): binds
binding (pm5 (human)): binds
binding (pm3 (human)): binds
binding (pm6 (human)): binds
binding (pm8 (human)): binds
binding (human CCR8 (human) [3]): binds
B1: 3-52 (antibody, V domains shown)
VH: QVQLQQPGSELVRPGASVKLSCKASGYTFTSYWMHWVKQRPGQGLEWIGNIWPGSASTNYDEKFKNKATLTVDTSSSTAYMQLSSLTSEDSAVYYCIRGGKGAMDYWSQGTSVTVSS
VL: DVVMTQIPLSLPVSLGDQASISCRSSQSLENSYGNTYLNWYLQKPGQSPQLLIYRVSNRFSGVLDRFSGSGSGTDFTLKISRVEAEDLGVYFCLQVTHVPPTFGAGTKLELK
